The structures appear in SMILES notation. Several values for one entry are separate records, joined by “and”; a condition that tells them apart may be missing. Identical values can stand only once. The list shows a part of the results. The main result of the screen is listed elsewhere. These columns were measured beside it and carry no call. Compounds called inactive in the main read-out are mostly missing here. Potencies come from curve fits of mixed quality, noted in brackets.

A short description of this test: qHTS Assay for Modulators of Lamin A Splicing. To be noted: HeLa LMNA splicing GFP/RFP minigene ratio, 48 h. An outline of the steps: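 S3 HeLa cells stably expressing lamin A-EGFP splicing minigene plus DsRed2, 600 cells/well, 48 h compound exposure at 37C. Laser-scanning cytometry; analysed as GFP (500-530 nm)/RFP (575-640 nm) total intensity ratio; 0.5% DMSO vehicle.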
For orientation: qHTS replaces the single test concentration by a dilution series.

Setting [1] is: measured here: GFP splicing reporter channel.
The mark [2] stands for this setting: measured here: RFP viability control channel.

In general, AC50 refers to the concentration giving half of the maximal activity seen. As for `CN(C)S(=O)(=O)Oc1ccc(C(=O)Nc2ccc([N+](=O)[O-])cc2)cc1`, the AC50 runs as follows: under setting [1], 3.16 µM [falling, partial curve]; under setting [2], 7.08 µM [falling, partial curve, poor fit].
On to `Fc1ccc(-c2noc3ncnc(NCC4CCN(Cc5ccc(Cl)cc5)CC4)c23)cc1`, for which the half-maximal activity concentration (AC50) under setting [2] was 0.00316 µM [rising, full curve, poor fit].
For the molecule `CSc1ccc(-c2nc(CSCC(=O)N3CCOCC3)c(C)o2)cc1`, the AC50 was 0.0794 µM [rising, partial curve] under setting [1] and 3.98 µM [rising, full curve] under setting [2].
In the case of `Cn1c(=O)c2c(nc(Br)n2CCCc2ccccc2)n(C)c1=O`, the AC50 by setting is: under setting [1], 3.16 µM [rising, partial curve]; under setting [2], 17.8 µM [rising, partial curve].
With `CC1=C(C(=O)OCC(C)C)C(c2ccc(F)cc2)NC(=O)N1` (stereo not given), under setting [1], the AC50 is 14.1 µM [rising, partial curve, poor fit].
On to `COc1cc(OC)cc(-c2nnc(SCC(=O)N(Cc3ccccc3)C(C)(C)C)o2)c1`, for which the AC50 is 11.2 µM [rising, partial curve] under setting [1] and 22.4 µM [rising, single point] under setting [2].
Take `CCN1CCN(S(=O)(=O)c2cc(OCC(=O)NC3CCCCC3)c(C)cc2Cl)CC1`: the AC50 under setting [1] is 5.62 µM [rising, partial curve] and the AC50 under setting [2] was 4.47 µM [rising, full curve].
For `OCCn1c(SCCOc2ccccc2F)nc2ccccc21`, the AC50 was 4.47 µM [falling, single point] under setting [1] and 5.62 µM [falling, single point] under setting [2].
On to `Cc1cc2nc3c(=O)[nH]c(=O)nc-3n(CC(O)C(O)C(O)CO)c2cc1C` (stereo not given), for which the AC50 was 501 nM [falling, full curve, poor fit] and 2.24 µM [rising, partial curve, poor fit] under setting [1]; 2 µM [rising, partial curve, poor fit] under setting [2].
In the case of `O=C(CN1CCN(c2nc(-c3ccc(F)cc3)cs2)CC1)Nc1ccc2c(c1)OCO2`, under setting [2], the AC50 was 22.4 µM [rising, partial curve].
`Cc1cc(C)c2nc(N3CCC(C(=O)N4CCCC4)CC3)sc2c1`: the AC50 by setting is: under setting [1], 17.8 µM [rising, single point]; under setting [2], 35.5 µM [rising, single point].
For `Cc1ccc(C(=O)Nc2ccc(S(=O)(=O)N3CCc4ccccc4C3)cc2)o1`, under setting [2], the AC50 was 35.5 µM [rising, single point].
As to `Cc1onc(-c2ccccc2)c1C(=O)Nc1ccc2c(C)cc(=O)oc2c1`, the AC50 under setting [2] is 15.8 µM [rising, single point].
The same measure, in the same setting: the figure for `Cc1ccc(Cn2ccc(NC(=O)c3cc(C(C)C)on3)n2)cc1` is 0.794 µM [falling, partial curve, poor fit].
On to `O=C(N/N=C/c1c(O)ccc2ccccc12)c1ccc[n+](CCO)c1`, for which the concentration at half-maximal activity (AC50) under setting [1] is 11.2 µM [falling, partial curve].
Regarding `COC(=O)c1cc(=O)n(Cc2ccc3c(c2)OCO3)c(=Nc2ccc(F)cc2)s1`, under setting [2], the AC50 was 11.2 µM [rising, single point].
Consider `FC(F)(F)c1cccc(NC(=S)NC(c2ccccc2)c2ccccc2)c1`, for which the AC50 under setting [2] was 0.355 µM [rising, partial curve, poor fit].
For the molecule `Fc1ccc(/C=N/Nc2ncnc3nc[nH]c23)cc1F`, the half-maximal activity concentration (AC50) under setting [1] was 2 µM [falling, full curve, poor fit].
Consider `CCOC(=O)c1cc(-c2ccc(F)cc2)n(CCC(=O)NCCc2ccc(C)cc2)c1C`, for which the AC50 under setting [2] was 15.8 µM [rising, single point].
Take `Clc1ccc(CNc2nnnn2-c2ccccc2)c(Cl)c1`: the concentration at half-maximal activity (AC50) under setting [2] was 28.2 µM [rising, single point].
Regarding `CCc1ccccc1NS(=O)(=O)c1ccc(NC(=O)N2CCCC2)cc1`, the AC50 reads like this: under setting [1], 0.447 µM [falling, full curve]; under setting [2], 0.631 µM [falling, full curve].
Regarding `CCc1nn2c(=O)cc(COC(=O)c3ccccc3NC(=O)C3CCCCC3)nc2s1`, under setting [2], the AC50 is 35.5 µM [rising, single point].
As to `CCCn1c(SCC(N)=O)nc2c(c1=O)C1(CCCC1)Cc1ccccc1-2`, the AC50 was 12.6 µM [rising, single point] under setting [1] and 14.1 µM [rising, single point] under setting [2].
Consider `N#CC1=C(N)SC(C(=O)c2ccccc2)C1c1cccs1` (stereo not given), for which the AC50 under setting [2] was 20 µM [rising, partial curve].
On to `N#Cc1ccc(-c2csc(NC(=O)/C=C/c3cccs3)n2)cc1`, for which the AC50 reads like this: under setting [1], 1.26 µM [rising, full curve, poor fit]; under setting [2], 0.708 µM [rising, full curve, poor fit].
Take `Cc1ccc(S(=O)(=O)N(C)C)cc1NC(=O)COC(=O)/C(=C/c1ccc(F)cc1)c1cccs1`: the AC50 under setting [2] was 31.6 µM [rising, single point].
Same read-out and setting: for `Cc1ccc2ccccc2[n+]1CCCS(=O)(=O)[O-]` the value was 0.00398 µM [falling, full curve, poor fit].
On to `COC(=O)C1=C(Nc2ccc(C)cc2)C=C(C)C(C(=O)OC)C1c1ccc(OC)cc1` (stereo not given), for which the AC50 under setting [1] was 25.1 µM [falling, partial curve].
Take `CC(=O)Nc1ncc(Cc2cc(Cl)ccc2Cl)s1`: the half-maximal activity concentration (AC50) under setting [1] was 35.5 µM [rising, single point].
With `CCCCn1c(O)c(/C=C/C=C/C=Nc2ccccc2)sc1=S`, the AC50 under setting [1] is 0.00316 µM [rising, full curve, poor fit].
On to `CC(C)CC(NS(=O)(=O)c1cc(C(=O)O)ccc1Cl)C(=O)O` (stereo not given), for which the AC50 under setting [1] is 0.126 µM [falling, full curve, poor fit].
Turning to `Nc1nc2c(s1)COc1ccccc1-2`, the AC50 under setting [2] was 0.562 µM [falling, full curve].
For `Cc1cccc(CNc2ncnc3ccc(-c4ccc(C(=O)N(C)C)cc4)cc23)c1`, the AC50 under setting [1] is 6.31 µM [falling, partial curve, poor fit] and the AC50 under setting [2] is 0.447 µM [falling, full curve].
Regarding `Cc1ccc(-n2c([S-])c(C(=O)Nc3ccc(OC(F)F)cc3)[n+]3ccc(C(=O)NCCO)cc23)cc1C`, the AC50 runs as follows: under setting [1], 1.58 µM [falling, full curve, poor fit]; under setting [2], 5.01 µM [falling, partial curve].
On to `CC(C)(CNC(=O)c1ccc(Cl)c(S(=O)(=O)N2CCc3ccccc3C2)c1)N1CCOCC1`, for which, under setting [2], the AC50 is 14.1 µM [rising, partial curve].
For the molecule `COc1ccnc(N2CCN(c3ccc(Cl)cc3)CC2)c1C#N`, under setting [1], the AC50 was 3.98 µM [rising, single point].
Turning to `CC(=O)Nc1cccc(/C(C)=N/NC(=O)c2c(-c3ccccc3Cl)noc2C)c1`, the AC50 reads like this: under setting [1], 2.24 µM [rising, single point]; under setting [2], 3.16 µM [rising, full curve].
Consider `CCOC(=O)c1c(C)n(C)c2ccc(OCC(O)Cn3c(C)nc4ccccc43)cc12` (stereo not given), for which, under setting [2], the AC50 is 14.1 µM [rising, single point].
Regarding `CCCCNC(=O)C1CCC(CNS(=O)(=O)c2ccc(NC(C)=O)cc2)CC1` (stereo not given), the AC50 by setting is: under setting [1], 35.5 µM [rising, single point] and 10 nM [falling, full curve, poor fit]; under setting [2], 35.5 µM [rising, single point] and 5.01 nM [falling, full curve, poor fit].
Take `CC(NC(=O)C(=O)N/N=C\c1ccc([N+](=O)[O-])cc1)c1ccccc1` (stereo not given): the AC50 under setting [2] was 6.31 µM [falling, single point].
For the molecule `CN1C2C=C(N(CCc3ccccc3)C(=O)c3ccc(Cl)cc3)CC1CC2` (stereo not given), the AC50 is 10 µM [falling, partial curve, poor fit] under setting [1] and 7.08 µM [falling, partial curve, poor fit] under setting [2].
Consider `Cc1nc(-c2ccc(S(=O)(=O)NCc3ccc(N(C)C)cc3)cc2)co1`, for which the AC50 under setting [1] was 12.6 µM [falling, partial curve].
`CC(=O)Nc1ccc(S(=O)(=O)N2CCN(CC(O)COc3ccc4ccccc4c3)CC2)cc1` (stereo not given): the AC50 under setting [2] was 14.1 µM [rising, single point].
Still for that read-out and setting: the figure for `CC(C)NC(=S)NC(=O)c1ccc(-c2ccccc2)cc1` is 35.5 µM [rising, single point]; for `CC1(C)NC(=O)N(CCCCOc2ccc3ccccc3c2Cl)C1=O` it is 14.1 µM [rising, single point].
Regarding `Cc1cc(C)c(C)c(C(=O)CSc2nnc(-c3ccc4[nH]c(C)c(C)c4c3)o2)c1C`, the concentration at half-maximal activity (AC50) under setting [1] is 15.8 µM [rising, partial curve, poor fit] and the AC50 under setting [2] was 8.91 µM [rising, partial curve, poor fit].
For the molecule `CCCOc1ccc(OCCOCCNCc2ccccc2)cc1`, the half-maximal activity concentration (AC50) is, setting by setting: under setting [1], 8.91 µM [rising, partial curve]; under setting [2], 12.6 µM [rising, single point].
For the molecule `COc1ccc2c(c1)[nH]c1c(Cl)ncnc12`, under setting [2], the concentration at half-maximal activity (AC50) is 1.41 µM [falling, single point].
Take `CCOC1(OCC)N=C(N)C2(C#N)C(c3cccc(OC)c3OC)C12C#N` (stereo not given): the AC50 under setting [1] was 0.708 µM [falling, single point] and the AC50 under setting [2] was 1.12 µM [falling, partial curve].
As to `O=C1CC(c2cccc(Cl)c2)CC(O)=C1C=NC1CCCC1` (stereo not given), the AC50 under setting [1] was 14.1 µM [rising, single point].
For `Cc1ccc2nc(-c3cccnc3)c(Nc3ccccc3C)n2c1`, the AC50 reads like this: under setting [1], 0.2 µM [rising, full curve]; under setting [2], 0.0891 µM [rising, full curve, poor fit].
Turning to `COc1ccccc1C1CCCN1Cc1nc(-c2ccc(C)s2)oc1C` (stereo not given), under setting [1], the AC50 is 7.94 µM [falling, partial curve].
Take `CCC(C)(C)C(=O)Nc1cccc(Cl)c1C`: under setting [2], the AC50 was 0.708 µM [falling, single point].
With `Clc1ccc(C2=Nn3c(nnc3-c3cc(-c4ccccc4)n[nH]3)SC2)cc1`, the AC50 was 7.94 µM [rising, partial curve] under setting [1] and 10 µM [rising, partial curve, poor fit] under setting [2].
